# Data published in patent publication US12310368B2, “Method for the prophylactic treatment of a food product” (Solvay SA, priority 2018, dated 2025).
# Settings: 200 ppm dosage
structure (smiles),measurement,setting,value
O=C([O-])O.[Na+] [sodium bicarbonate],measured quantity of sodium bicarbonate in wheat grains,"after passage in separator cleaner, Sample 3 cell bottom",134 ppm
same,measured quantity of sodium bicarbonate in wheat grains,"after passage in separator cleaner, Sample 4 middle of cell",142 ppm
same,measured quantity of sodium bicarbonate in wheat grains,"after passage in separator cleaner, Sample 9 top of cell",149 ppm
same,measured quantity of sodium bicarbonate in wheat grains,"exit of cell before separator cleaner, Sample 1 cell bottom",202 ppm
same,measured quantity of sodium bicarbonate in wheat grains,"exit of cell before separator cleaner, Sample 2 middle of cell",199 ppm
same,measured quantity of sodium bicarbonate in wheat grains,"exit of cell before separator cleaner, Sample 8 cell top",202 ppm

# Where two headings read alike, the source gives them in different places.
